At least one structure is not confirmed: it was looked up by name or label, or the drawing left a doubt.
Test system: small molecule-rescued trk1Δtrk2Δ cells versus wild type
Test: Probing sensitivities to known chemical inhibitors assay
Type: cell-based, Saccharomyces cerevisiae
Conditions: AmB rescue; OD600 after 24 hours; FIGS. 3B-3D
Experimental: Probing sensitivities to known chemical inhibitors assay. Overnight cultures were grown as described in the MIC assay. Prior to harvesting cells, small molecules AmB, nystatin A1 (Riedel-de-Haen), candicidin (TOKU-E), or mepartricin (Santa Cruz Biotechnology) and chemical inhibitors nocodazole (Sigma-Aldrich), ebselen (Cayman Chemical), or bafilomycin BI (Santa Cruz Biotechnology were prepared as stock solutions in DMSO. Saturated cell cultures were centrifuged for 5 minutes at 1000×g. The supernatant was poured off, and cells were resuspended in sterile MilliQ water. Cells were centrifuged again, and supernatant was poured off. The wash step was repeated. The supernatant was poured off, and cells were resuspended in normal potassium YPAD. Cells were diluted with normal potassium YPAD to an OD600 of 0.01. Next, an appropriate volume of AmB, nystatin A1, candicidin, or mepartricin was added to give a final rescuing concentration of 125 nM, 1000 nM, 8 nM, and 8 nM, respectively. A control was prepared by adding the corresponding volume of DMSO to trk1Δtrk2Δ cells. 195 μL of WT+small molecule, 195 μL of trk1Δtrk2Δ+small molecule, and 195 μL of trk1Δtrk2Δ+DMSO were added to a 96 well plate. […] A BioTek Synergy H1 Hybrid Reader was used to measure the OD600. […]

SMILES: O=c1c2ccccc2[se]n1-c1ccccc1 [ebselen]
- sensitivity of AmB-rescued trk1Δtrk2Δ cells versus AmB-treated wild type to the inhibitor: exceptionally sensitive

Reference: patent US20240277743A1, “RESTORING PHYSIOLOGY WITH SMALL MOLECULE MIMICS OF MISSING PROTEINS” (The Board of Trustees Of The University Of Illinois, priority 2014, published 2024)
